# No constants are given. Whether binding was seen depends on the method and setting. In cells and extracts the contact can be indirect. Some entries that bind do so weakly or less than the wild type. Where a sequence is shown, tags or fusion partners need not be part of it.
# B1: 6X HIS-tagged ORF57 (ORF57-6XHIS) (protein, UniProt Q2HR75 1-455)
# chain: MVQAMIDMDIMKGILEDSVSSSEFDESRDDETDAPTLEDEQLSEPAEPPADERIRGTQSAQGIPPPLGRIPKKSQGRSQLRSEIQFCSPLSRPRSPSPVNRYGKKIKFGTAGQNTRPPPEKRPRRRPRDRLQYGRTTRGGQCRAAPKRATRRPQVNCQRQDDDVRQGVSDAVKKLRLPASMIIDGESPRFDDSIIPRHHGACFNVFIPAPPSHVPEVFTDRDITALIRAGGKDDELINKKISAKKIDHLHRQMLSFVTSRHNQAYWVSCRRETAAAGGLQTLGAFVEEQMTWAQTVVRHGGWFDEKDIDIILDTAIFVCNAFVTRFRLLHLSCVFDKQSELALIKQVAYLVAMGNRLVEACNLLGEVKLNFRGGLLLAFVLTIPGMQSRRSISARGQELFRTLLEYYRPGDVMGLLNVIVMEHHSLCRNSECAAATRAAMGSAKFNKGLFFYPLS
# Biological target: FLAG-tagged SHFL (FLAG-SHFL) (human) (UniProt Q9NUL5)
# Assay: co-IP
binder,measurement,value
B1,binding,binds
